Source: ChEMBL document CHEMBL3988442, “University of Dundee, Small-Polar-MMV Screening Library” (2021).

Amino acid sequences for entries named in this document (tags omitted). Residues count along the entry.
UniProt Q8IDJ8, 1-583: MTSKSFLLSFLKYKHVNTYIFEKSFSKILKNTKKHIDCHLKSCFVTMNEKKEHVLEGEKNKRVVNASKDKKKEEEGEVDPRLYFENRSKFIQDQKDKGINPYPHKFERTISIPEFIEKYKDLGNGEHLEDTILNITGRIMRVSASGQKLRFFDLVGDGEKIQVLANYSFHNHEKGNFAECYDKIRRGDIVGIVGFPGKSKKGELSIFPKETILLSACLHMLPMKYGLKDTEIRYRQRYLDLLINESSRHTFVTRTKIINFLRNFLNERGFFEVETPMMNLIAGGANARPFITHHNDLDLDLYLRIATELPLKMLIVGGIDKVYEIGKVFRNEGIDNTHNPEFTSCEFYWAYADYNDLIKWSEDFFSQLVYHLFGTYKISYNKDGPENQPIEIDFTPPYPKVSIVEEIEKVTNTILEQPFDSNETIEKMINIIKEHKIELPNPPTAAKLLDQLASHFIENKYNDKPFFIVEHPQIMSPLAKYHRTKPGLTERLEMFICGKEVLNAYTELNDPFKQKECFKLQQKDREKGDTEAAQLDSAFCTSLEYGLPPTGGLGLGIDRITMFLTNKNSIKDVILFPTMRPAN
UniProt P9WNZ1, whole entry: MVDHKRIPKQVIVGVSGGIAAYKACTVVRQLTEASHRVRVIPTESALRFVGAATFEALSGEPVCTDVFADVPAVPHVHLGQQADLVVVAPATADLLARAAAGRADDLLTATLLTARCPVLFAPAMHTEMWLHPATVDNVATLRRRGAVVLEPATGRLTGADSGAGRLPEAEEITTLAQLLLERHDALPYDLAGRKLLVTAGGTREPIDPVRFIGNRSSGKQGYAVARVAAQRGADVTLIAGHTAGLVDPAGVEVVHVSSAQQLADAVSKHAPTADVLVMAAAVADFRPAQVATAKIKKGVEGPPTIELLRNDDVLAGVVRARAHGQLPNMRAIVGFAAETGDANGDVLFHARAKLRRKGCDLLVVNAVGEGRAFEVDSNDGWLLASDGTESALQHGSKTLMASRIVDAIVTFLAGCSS

The filed quantity is “Percent Effect” (%).
The record does not define 0% and 100%; most values in the screen are far below 50% and negative numbers occur (in some assays of this library far below -100).
This is an unselected part of the compounds tested.

PfKRS1: 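Enzyme assay of the cytosolic lysyl-tRNA synthetase in 384-well plates, read by luminescence. Target: Lysine-tRNA ligase, Plasmodium falciparum 3D7 (UniProt Q8IDJ8). Tested at 30 µM. Direction is inferred from only a few compounds that gave an IC50; most scored high, so higher reads as stronger inhibition. Size under these conditions: about 69,000 compounds, about 49 of them at 50% or above in at least one test.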
Toxoplasma: 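Assay of Toxoplasma gondii numbers, read through their beta-galactosidase reporter with a colour substrate. Concentration: 10 µM. The record gives no direction; the compounds picked for IC50 retests had high values, so higher reads as fewer parasites. Of about 67,000 compounds tested this way, about 260 (0.38%) reached 50% or more in at least one test.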
CoaBC: 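Enzyme assay of CoaBC with a phosphate dye (Biomol Green) read at 650 nm. Target: Coenzyme A biosynthesis protein CoaBC, Mycobacterium tuberculosis (UniProt P9WNZ1). Tested at 30 µM. Higher reads as stronger inhibition, judged from the few compounds that gave an IC50. Most strong results did not repeat in a second test. Of about 67,000 compounds tested this way, about 40 (0.06%) reached 50% or more in at least one test.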

* Cc1noc([C@H]2C[C@H]3OCC[C@H]3N(Cc3ccc(F)cc3)C2)n1 | PfKRS1: 3.437%; CoaBC: 0.2538%
* Cc1cc(C(=O)N2CCc3nnc(N(C)C)cc3C2)c(C)n1C1CC1 | PfKRS1: 9.751%; Toxoplasma: -2.643%; CoaBC: 10.97%
* CCC1CN(C)c2ccccc2CN1C(=O)Nc1ccc(C)cc1 (stereo not shown) | PfKRS1: -1.149%; Toxoplasma: -0.6705%; CoaBC: -4.363%
* COc1ccc(NC(=O)Cn2nc(C)c(C(C)=O)c2C)cc1 | PfKRS1: 4.267%; Toxoplasma: 89.45%; CoaBC: -0.6342%
* Cc1nc(C2CCN(S(C)(=O)=O)CC2)nc2c1CCC(=O)N2CC(C)C | PfKRS1: -0.05691%; Toxoplasma: -12.99%; CoaBC: -9.198%
* Cn1ccnc1CN1C[C@H]2CN(S(C)(=O)=O)CCN2C1=O | PfKRS1: 0.09907%; CoaBC: 15.13%
* CC(C)C[C@@H](CO)n1cc(-c2cnc(-c3ccco3)nc2)nn1 | PfKRS1: 7.135%; Toxoplasma: -20.95%; CoaBC: 6.277%
* Cc1noc(C)c1C(=O)N1CCOC2(COCCN(C(C)C)C2)C1 (stereo not shown) | PfKRS1: 3.615%; CoaBC: 1.485%
* CC(C)CN1C[C@@H]2CN(C(=O)c3cccn3C)C[C@@H]2C1=O | PfKRS1: 6.289%; CoaBC: 3.448%
* CC(C)Cc1nc(CS(=O)(=O)C(C)C(=O)N2CCOCC2)no1 (stereo not shown) | PfKRS1: 0.1472%; Toxoplasma: -3.805%; CoaBC: 3.871%
* O=C(c1ccc(O)cc1)N1C[C@@H]2CCN(c3cccnc3)C[C@@H]2C1 | PfKRS1: -1.3%; CoaBC: 5.584%
* CC(C)(NCC(=O)NC(=O)NC1CC1)c1ccc2c(c1)OCO2 | PfKRS1: 2.54%; Toxoplasma: -12.45%; CoaBC: -8.114%
* c1cc(CN2C[C@H](OCC3CCOCC3)[C@H]3COC[C@H]32)co1 | PfKRS1: 2.324%; CoaBC: -2.97%
* CO[C@H]1COCCN(C(=O)c2ccc(C(F)(F)F)cc2)C1 | PfKRS1: 1.635%; Toxoplasma: 9.742%; CoaBC: 6.876%
* O=C(c1cc(C2CC2)n[nH]1)N1C[C@H]2CC[C@](O)(c3ccccc3F)[C@H]2C1 | PfKRS1: 2.465%; CoaBC: -7.022%
* O=C(NCCn1ccnc1)c1cncc(Br)c1 | PfKRS1: -1.289%; Toxoplasma: -1.219%
* CCn1nc(CC(C)C)cc1C(=O)NCCCOC | PfKRS1: 2.005%; Toxoplasma: -3.431%; CoaBC: 6.751%
* O=C(O)C(F)(F)F.[H][C@]12CCN(C(=O)Cc3cccc(OC)c3)CC[C@@]1([H])S(=O)(=O)CCN2C | Toxoplasma: -7.731%
* CO[C@@H]1CC[C@H]2[C@H]1OCCN2C(=O)c1nn(C)c2ccccc12 | PfKRS1: 4.381%; CoaBC: -2.927%
* Cc1nn(C)c(C)c1CC(=O)N1CCCC(n2ccnc2C)C1 (stereo not shown) | PfKRS1: 0.2229%; Toxoplasma: -43.1%; CoaBC: -4.215%
* Cc1cc(N(C)CC2COc3ccccc3O2)nc(C)n1 (stereo not shown) | PfKRS1: 4.755%; Toxoplasma: -10.85%; CoaBC: 7.248%
* CN(C)c1ncccc1CNC(=O)NCc1ccco1 | PfKRS1: -0.8193%; Toxoplasma: -0.649%; CoaBC: 1.22%
* CCc1nc(CN2CCN(C(=O)CCc3ccccc3)CC2)cs1 | PfKRS1: 6.484%; Toxoplasma: -6.243%; CoaBC: 7.572%
* OC1CN(Cc2ccccc2)CCN(c2ccncc2)C1 (stereo not shown) | PfKRS1: -2.134%; Toxoplasma: 3.073%; CoaBC: -19.44%
* O[C@H]1[C@H](NCCc2cnccn2)c2ccccc2C12CCNCC2 | PfKRS1: 6.523%; Toxoplasma: 0.2647%; CoaBC: 4.167%
* CC(C)Cn1cncc1CNC1CCCNC1 (stereo not shown) | PfKRS1: 3.159%; Toxoplasma: -0.7399%; CoaBC: 0.122%
* O=C(c1ccccc1-n1cccn1)N1CCCN(c2cccnn2)CC1 | PfKRS1: 2.837%; Toxoplasma: -9.628%; CoaBC: 10.51%
* CN(CCNC(=O)c1cnc(-c2ccccc2)nc1)S(C)(=O)=O | PfKRS1: -3.26%; Toxoplasma: 16.39%; CoaBC: -0.6494%
* CCC(C)N(Cc1ccncc1)Cc1cccc(Cn2cccn2)c1 (stereo not shown) | PfKRS1: 1.631%; Toxoplasma: 5.281%; CoaBC: -1.613%
* Cc1cccc(CN2CC[C@H]3C[C@H](C)O[C@@H]3C2)n1 | PfKRS1: 10.47%; CoaBC: -1.014%
* Cn1cc(CN2CCn3c(CNC(=O)c4cccn4C)cnc3C2)cn1.O=C(O)C(F)(F)F | Toxoplasma: 2.885%
* N#Cc1cccc(S(=O)(=O)N(CC2CCC2)c2cn[nH]c2)c1 | PfKRS1: 1.096%; Toxoplasma: -1.876%; CoaBC: 0%
* O=C(c1ccco1)N1CCc2ncnc(Oc3cccnc3)c2CC1 | PfKRS1: 4.562%; CoaBC: -3.548%
* COc1cccc(-c2n[nH]cc2C(=O)NC(C)c2nc(C(C)C)no2)c1 (stereo not shown) | PfKRS1: 7.269%; Toxoplasma: 10.21%; CoaBC: 4.472%
* CCc1cnc(CN(C)C2CCN(CC3CCOCC3)C2)o1 (stereo not shown) | PfKRS1: 5.953%; Toxoplasma: 11.36%; CoaBC: 10.68%
* Cc1c(CN2CCCC2c2cncc(CN3CCCC3)n2)cnn1C (stereo not shown) | PfKRS1: 1.871%; Toxoplasma: -8.277%; CoaBC: 9.132%
* CC(C)c1cc(C(=O)N[C@H]2CN(C3CCOCC3)C[C@@H]2C2CC2)no1 | PfKRS1: 3.703%; Toxoplasma: 10.15%; CoaBC: 7.158%
* COC(=O)c1ccc2ccn(CC3CCCCO3)c(=O)c2c1 (stereo not shown) | PfKRS1: 78.62%; Toxoplasma: -22.22%; CoaBC: 2.533%

Once more, the final 4:

| structure | PfKRS1 | Toxoplasma | CoaBC |
|---|---|---|---|
| `CCc1cnc(CN(C)C2CCN(CC3CCOCC3)C2)o1` (stereo not shown) | 5.953 | 11.36 | 10.68 |
| `Cc1c(CN2CCCC2c2cncc(CN3CCCC3)n2)cnn1C` (stereo not shown) | 1.871 | -8.277 | 9.132 |
| `CC(C)c1cc(C(=O)N[C@H]2CN(C3CCOCC3)C[C@@H]2C2CC2)no1` | 3.703 | 10.15 | 7.158 |
| `COC(=O)c1ccc2ccn(CC3CCCCO3)c(=O)c2c1` (stereo not shown) | 78.62 | -22.22 | 2.533 |